Measured values published in patent publication US20070004634A1.
Results are given in words; binding and its absence hold for the method and conditions named. Some binding calls cover weakened binding; strength is not graded here.

B1: H2C (D117), as listed in Tables 21 and 22 (peptide)
peptide: FHENFYDWFVQRVSKK
B2: C1 (D112) (peptide)
peptide: CWARPCGDAANFYDWFVQQAS
B3: 20E2 (D118) (peptide)
peptide: DYKDFYDAIDQLVRGSARAGGTRD

Target: soluble human insulin receptor-immunoglobulin heavy chain chimera (sIR-Fc; Bass et al., 1996) (human) (UniProt P06213)
Test: FP competition with FITC-RP9

binding, binds:
B1
B2
B3
